Laboratory results: PubChem BioAssay AID504808 (Drosophila RNAi Screening Center, 2011)
The deposit covers about 21,000 reagents; below is a random part of those that have a named target and a result. In the full data, 18 (0.084%) are marked active. 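Raw counts without plate normalisation, one of two replicates; the ratio scores behind the calls were not deposited.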 Unmarked entries are inactive. Reagents against one gene are numbered here. The record does not give: the amount of reagent, the time to read-out.

Assay: 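Fly genes required to hold E2F transcription in check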 (primary screen)
System: Drosophila S2 cells
Reagents: long dsRNA against Drosophila genes
Read-out: 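Firefly luciferase driven by E2F sites, normalised to Renilla luciferase on the same minimal promoter, measured by plate reader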
Direction: E2F firefly: higher = more E2F reporter activity; Renilla normaliser: higher = more normaliser reporter signal
Active means: 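a knock-down counted as active when the firefly/Renilla E2F signal rose above 50%, a threshold chosen arbitrarily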

For Cdk5 (GeneID 36727), how do the results read?
E2F firefly, rep 1: 79226; Renilla normaliser, rep 1: 3952

For CG7763 (GeneID 36235), what does the deposit list?
E2F firefly, rep 1: 1.08e5; Renilla normaliser, rep 1: 4201

What is on record for CG32119 (GeneID 317866)?
E2F firefly, rep 1: 1.48e5; Renilla normaliser, rep 1: 4161

With CG17141 (GeneID 42697), what was measured?
E2F firefly, rep 1: 1.07e5; Renilla normaliser, rep 1: 5481

Which result is listed for CG3565 (GeneID 37933)?
E2F firefly, rep 1: 80095; Renilla normaliser, rep 1: 3927

With Droj2 (GeneID 41646), what was measured?
E2F firefly, rep 1: 67330; Renilla normaliser, rep 1: 3427

With MED15 (GeneID 33223), what does the deposit list?
E2F firefly, rep 1: 71932; Renilla normaliser, rep 1: 3502

What did the screen give for CG30414 (GeneID 37705)?
E2F firefly, rep 1: 1.05e5; Renilla normaliser, rep 1: 4201

What is on record for CG12723 (GeneID 32271)?
E2F firefly, rep 1: 70165; Renilla normaliser, rep 1: 5257

Which result is listed for Vha16-2 (GeneID 39282)?
E2F firefly, rep 1: 1.25e5; Renilla normaliser, rep 1: 6859

Which result is listed for Cap-G (GeneID 36440) #1?
E2F firefly, rep 1: 1.09e5; Renilla normaliser, rep 1: 4091

With Cap-G (GeneID 36440) #2, what does the deposit list?
E2F firefly, rep 1: 97371; Renilla normaliser, rep 1: 4111
